Assay results reported in PubChem BioAssay AID504444 (National Center for Advancing Translational Sciences (NCATS), 2011).
About 7,500 (2.1%) of roughly 360,000 compounds were called active. This list was built around the results that the source calls inconclusive (neither active nor inactive); the mix of calls is not that of the screen. The call rests on the fitted dose curve; in most records, active means well fitted inhibition curve with a large enough effect; inconclusive means small, poorly fitted or top-dose-only effect, or effect the other way; inactive means flat fitted curve, though single readings scatter. Potencies beside an inconclusive call are fits to weak or partial responses and may not hold up.

Test: Nrf2 qHTS screen for inhibitors; further: nearly all actives have a fitted effect of over 60% in size
Conditions: A549 ARE-Fluc reporter, luciferase luminescence, 18-24 h; series mostly up to 46 µM
Method in brief: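 Nrf2 function is reported as luminescence of an ARE-controlled luciferase in A549 cells. Compounds were tested at several concentrations, and a CellTiter-Fluor read on the same wells flagged cytotoxicity.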
Potency means the concentration at half of the fitted maximal effect.

Compound | Potency
O=C(c1ccc(-n2cccn2)cc1)N1CCN(c2ncccc2C(F)(F)F)CC1 | inconclusive: 6.51 µM [falling, partial curve, poor fit]
CCOC(=O)c1c(C)[nH]c(O)c1C=Nc1ccccc1 | inconclusive: 23.1 µM [falling, partial curve, poor fit]
CC(C)Sc1nnc([C@H](Cc2c[nH]c3ccccc23)NC(=O)OC(C)(C)C)o1 | inconclusive: 9.2 µM [falling, partial curve, poor fit]
CCCc1cc(=O)[nH]c(SCC(=O)Nc2sc(C(N)=O)c(C)c2C(=O)OCCOC)n1 | active: 5.17 µM
CCSc1nccc(-c2nn(-c3ccc(C)cc3)ccc2=O)n1 | inconclusive: 13 µM [falling, partial curve, poor fit]
O=C(Nc1ccccc1F)c1ccc2c(c1)CCN2S(=O)(=O)c1ccccc1 | inconclusive: 10.3 µM [falling, partial curve, poor fit]
COc1ccc(-n2ncc3c2ncn2nc(Cc4ccccc4)nc32)cc1 | inconclusive: 18.4 µM [activator, partial curve, poor fit]
CCN1C(=O)[C@H]2[C@@H](c3ccc(-c4ccc(C(C)=O)cc4)cc3)N[C@@](Cc3ccccc3)(C(=O)OC)[C@H]2C1=O | inconclusive: 18.4 µM [falling, single point]
N#C/C(=C(/O)c1ccc([N+](=O)[O-])cc1)c1nc2ccccc2[nH]1 | inconclusive: 5.17 µM [activator, full curve, poor fit]
CC(=O)NC(=S)Nc1ccc(NC(=S)NC(=O)/C=C/c2ccco2)cc1 | inconclusive: 29.1 µM [falling, single point]
COc1ccc(NC(=O)CN(c2ccccc2)S(=O)(=O)c2ccccc2)c(OC)c1 | inconclusive: 23.1 µM [falling, partial curve]
CCOc1ccc(CN(Cc2ccco2)S(=O)(=O)c2ccc(-n3cnnn3)c(OC)c2)cc1 | inconclusive: 20.6 µM [falling, single point]
O=C(NCCC1CCCCN1S(=O)(=O)c1ccc(F)cc1)C(=O)NCc1ccncc1 (stereo unspecified) | active: 11.6 µM
Cc1ccc(-c2noc(-c3nnn(-c4ccc(Br)cc4F)c3C)n2)cc1 | inconclusive: 29.1 µM [falling, single point]
CCCCN(CC)Cc1ccc(CNC(=O)Nc2ccc(F)cc2)o1 | inconclusive: 16.4 µM [falling, single point]
Cc1ccc(C(=O)Nc2cnc3sc(C)nn3c2=O)cc1 | inconclusive: 18.4 µM [activator, single point]

Looked up one by one from the list above, 2 records:
Compound | Potency
O=C(Nc1ccccc1F)c1ccc2c(c1)CCN2S(=O)(=O)c1ccccc1 | inconclusive: 10.3 µM [falling, partial curve, poor fit]
CCN1C(=O)[C@H]2[C@@H](c3ccc(-c4ccc(C(C)=O)cc4)cc3)N[C@@](Cc3ccccc3)(C(=O)OC)[C@H]2C1=O | inconclusive: 18.4 µM [falling, single point]
